# Patent US20040077615A1, “Novel formulations for administering therapeutic lipophilic molecules” (priority 2000, published 2004)
# Settings: healthy human volunteers, single subcutaneous dose 5 mg in sesame oil (10 mg/ml), no benzyl alcohol; FIG. 1
smiles,measurement,value
CN1C(=O)CN=C(c2ccccc2)c2cc(Cl)ccc21 [diazepam],time to reach peak concentration in blood,less then one hour
